Measured values from paper PMC3440322.
These are yes or no findings as the source states them, for the method shown. Binding seen in cells or lysates may run through a third protein. Some entries that bind do so weakly or less than the wild type. For some assays here: Sequences can lack the tags named with a protein.

Sequences of proteins named here, by UniProt entry; tags and fusion partners are left off.
UniProt O95817: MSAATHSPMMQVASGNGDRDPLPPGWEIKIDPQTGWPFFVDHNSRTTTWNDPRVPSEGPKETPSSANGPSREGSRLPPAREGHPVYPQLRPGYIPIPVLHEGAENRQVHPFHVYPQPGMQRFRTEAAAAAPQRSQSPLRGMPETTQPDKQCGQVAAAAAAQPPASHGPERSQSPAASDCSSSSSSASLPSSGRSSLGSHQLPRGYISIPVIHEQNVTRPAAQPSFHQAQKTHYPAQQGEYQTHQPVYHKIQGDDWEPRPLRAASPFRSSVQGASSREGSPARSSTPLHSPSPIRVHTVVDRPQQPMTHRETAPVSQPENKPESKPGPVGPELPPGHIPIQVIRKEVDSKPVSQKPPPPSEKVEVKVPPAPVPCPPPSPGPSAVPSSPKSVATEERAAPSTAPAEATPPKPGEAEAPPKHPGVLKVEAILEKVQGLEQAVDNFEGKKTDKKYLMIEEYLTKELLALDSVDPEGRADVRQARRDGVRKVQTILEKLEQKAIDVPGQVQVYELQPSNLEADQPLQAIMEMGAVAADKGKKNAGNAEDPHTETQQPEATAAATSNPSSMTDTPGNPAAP
UniProt Q9JLV1: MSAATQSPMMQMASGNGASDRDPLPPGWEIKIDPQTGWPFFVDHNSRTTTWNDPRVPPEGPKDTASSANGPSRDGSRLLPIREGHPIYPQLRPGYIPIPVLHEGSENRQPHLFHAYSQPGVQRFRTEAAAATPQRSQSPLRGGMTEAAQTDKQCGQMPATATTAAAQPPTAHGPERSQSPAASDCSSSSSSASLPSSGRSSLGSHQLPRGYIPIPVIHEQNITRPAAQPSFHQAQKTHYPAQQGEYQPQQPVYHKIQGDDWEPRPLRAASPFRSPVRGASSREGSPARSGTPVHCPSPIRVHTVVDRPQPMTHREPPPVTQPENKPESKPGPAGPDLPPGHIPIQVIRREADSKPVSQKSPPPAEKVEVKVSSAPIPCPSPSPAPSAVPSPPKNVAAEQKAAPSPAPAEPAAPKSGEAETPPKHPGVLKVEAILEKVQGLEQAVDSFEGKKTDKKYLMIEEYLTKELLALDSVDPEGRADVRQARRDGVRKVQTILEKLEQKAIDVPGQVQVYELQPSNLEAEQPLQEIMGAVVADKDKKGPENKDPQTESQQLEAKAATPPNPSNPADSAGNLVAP

How the values were obtained:
[1] = biological target: T1, GST-large T antigen, full-length (pGEX2T-LT-(1–688)) (JC virus (JCV)) (UniProt P03072); assay: pull-down; 2 µg GST fusion protein immobilized on Sepharose beads, incubated with 0.5 mg U-87MG whole-cell extract overnight at 4°C in 50 mM Tris-HCl pH 7.4, 150 mM NaCl, 0.5% Nonidet P-40; Western blot with anti-Bag3; only the target purified
T1 sequence: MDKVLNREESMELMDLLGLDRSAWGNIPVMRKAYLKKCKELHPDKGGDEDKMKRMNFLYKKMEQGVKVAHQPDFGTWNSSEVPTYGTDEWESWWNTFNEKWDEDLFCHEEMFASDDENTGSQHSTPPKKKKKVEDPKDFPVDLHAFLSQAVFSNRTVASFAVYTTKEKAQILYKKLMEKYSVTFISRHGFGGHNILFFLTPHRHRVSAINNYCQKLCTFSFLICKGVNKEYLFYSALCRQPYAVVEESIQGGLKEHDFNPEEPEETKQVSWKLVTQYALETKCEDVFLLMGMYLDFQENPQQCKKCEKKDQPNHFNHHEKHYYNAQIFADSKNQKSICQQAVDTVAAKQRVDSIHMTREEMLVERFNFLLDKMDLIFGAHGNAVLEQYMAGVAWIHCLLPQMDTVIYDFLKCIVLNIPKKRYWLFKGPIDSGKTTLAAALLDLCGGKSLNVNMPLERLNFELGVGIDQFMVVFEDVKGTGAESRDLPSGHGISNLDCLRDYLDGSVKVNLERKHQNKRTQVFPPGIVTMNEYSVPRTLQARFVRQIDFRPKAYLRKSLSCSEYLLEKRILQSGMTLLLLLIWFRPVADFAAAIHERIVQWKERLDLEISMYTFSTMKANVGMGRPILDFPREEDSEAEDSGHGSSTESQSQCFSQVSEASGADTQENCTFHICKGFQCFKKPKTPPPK

[2] = biological target: T2, JCV large T-antigen (T-Ag), constitutively produced in BSB8 cells (JC virus (JCV)) (UniProt P03072); assay: co-IP; large T-Ag immunoprecipitated with a monoclonal antibody (0.4 µg/IP) from BSB8 whole cell extracts, protein A/G beads, 1% NP-40-TNN buffer (150 mM NaCl, 40 mM Tris-HCl pH 7.4, 1 mM DTT, 1 mM EDTA), overnight 4°C; Western blot with anti-Bag3
T2 sequence: T1 sequence

For “Bag3, endogenous in U-87MG cells (from UniProt O95817 1-575)”, the binding [1] was “binds”.
In the case of “Bag3, endogenous in BSB8 cells (from UniProt Q9JLV1 1-577)”, the binding [2] is reported as “binds”.
